In patent publication US20260008852A1:

B1: 40579p1.C2 (scFv, V domains shown)
VH: EVQLLESGGDLVQPGGSLRLSCAASGFNFSSYWMSWVRQAPGKGLEWVSGISISYGGNAYYADSVKGRFTVSRDNSKNTLYLQMNSLRAEDTAVYYCGRDRSPYQYRSMDVWGQGTTVTVSS
VL: EIVLTQSPATLSVSPGERATFSCRASQTIGNKLAWYQQKPGQAPRLLIFSASTRATDIPDRFSGSGSGTDFTLTISSLQSEDFAVYYCQQYNNWPPLTFGGGTKVEIK
B2: 40579p1.F7 (scFv, V domains shown)
VH: EVQLLESGGGLVQPGGSLRLSCAASGFTFSDYYMSWVRQAPGKGLEWVSGISISYGGNAYYADSVKGRFTVSRDNSKNTLYLQMNSLRAEDTAVYYCGRDRSPYQYRSMDVWGQGTTVTVSS
VL: EIVLTQSPGTLSLSPGERATLTCRASQSVGDFLAWYQQKPGQAPRLLIYGASTRAAGIPARFRGSGSGTDFTLTISSLQSEDFAVYYCQQYKNWPPLTFGGGTKVEIK
B3: 40511p1.1.G1 (scFv, V domains shown)
VH: DVQLVESGGGVVRPGESLRLSCAASGFTFSSYAESWVRQAPGEGLEWVSIISGSGGNTFYADSVKGRFTISRDNSKNTLYLQMNSLRAEDTAVYYCARFAYGFFDYWGLGTLVTVSS
VL: EIVLTQSPGTLSVSPGEGATLSCRASQTVGSKLAWYQQKPGQPPSLLIYDASTRATGIPDRFSGSGSGTDFTLTISSLQSEDFAVYYCQQYRNWPPLTFGGGTKVEIK
B4: 40633p1.1.B12 (scFv, V domains shown)
VH: EVQLLESGGGLLQPGGSLRLSCAASGFSFSSYGMHWVRQAPGKGLEWVAAINSDGSRIYYADSVKGRFTISRDNSKNTLYLQMNSLRAEDTAVYYCTKYYYHYAMDVWGQGTTVTVSS
VL: QSVLTQPPSASGTPGQRVTISCSGSRSDIGATTVNWYQQLPGTAPKLLTYQSHLRPSGVPDRFSGSKSGTSASLAISGLQSEDEADYYCASWDASLNTWVFGGGTKLTVL
B5: 40511p1.1.D8 (scFv, V domains shown)
VH: DVQLVESGGGVVRPGESLRLSCAASGFTFSSYAMSWVRQAPGEGLEWVSSISGSGGSTLYADSVKGRFTISRDSSNNSLYLQMNSLRAEDTAVYYCAKARNNFFDYWGLGTLVTVSS
VL: EIVLTQSPGTLTLSPGERATLSCRASRSILTSLAWYQQRPGQAPRLLIYGANSRATGIPDRFSGSGSGTEFTLTISSLQSEDFAVYYCQQYYDWLTITFGGGTKVEIK
B6: 40511p1.2.B5 (scFv, V domains shown)
VH: DVQLVESGGGVVRPGESLRLSCAASGFTFSSYAMSWVRQAPGEGLEWVSSISGSGGSTLYADSVKGRFTISRDSSNNSLYLQMNSLRAEDTAVYYCAKARNNFFDYWGLGTLVTVSS
VL: EIVLTQSPGTLTLSPGERATLSCRASRSILTSLAWYQQRPGQTPRLLIYGANSRATGIPDRFSGSGSGTEFTLTISSLQSEDFAVYYCQQYYDWLTITFGGGTKVEIK
B7: 40579p1.H6 (scFv, V domains shown)
VH: EVQLLESGGGLVQPGGSLRLSCAASGFTVNNAWMSWVRQAPGKGLEWVSAISYGGSIYYADSVKGRFTISRDNSKNTLYLQMNSLRAEDTAVYYCAKHRSTTYNGMDVWGQGTTVTVSS
VL: EIVLTQSPGTLSLSPGERATLSCRASQSVGSFLAWYQQKPGQAPRLLIYGANTRAAGIPDRFRGSGNGTDFTLTISSLQSEDFAVYYCQQYYDWPPLTFGGGTKVEIK
B8: 40511p1.1.A1 (scFv, V domains shown)
VH: DVQLVESGGGVVRPGESLRLSCAASGFTFSNYAMNWVRQAPGEGLEWVSRINYKGYNITYYADSVKGRFTISRDNSKNTLYLQMNSLRAEDTAVYYCAKSGSNSNNFFDYWGLGTLVTVSS
VL: EIVLTQSPGTLSVSPGERATLSCRASQSVNSKLAWYQQRPGQAPRLLIYDASSRATGIPDRFSGSGSGTDFTLTISRLEPEDFAVYYCQQYKNWPPLTFGGGTKVEIK
B9: 40511p1.2.G10 (scFv, V domains shown)
VH: DVQLVESGGGVVRPGESLRLSCAASGFTFSNYAMNWVRQAPGEGLEWVSRINYKGYNITYYADSVKGRFTISRDNSKNTLYLQMNSLRAEDTAVYYCAKSGSNSNNFFDYWGLGTLVTVSS
VL: EIVLTQSPGTLSLSPGERATLSCRASQTVGSKLAWYQQKPGQAPRLLIYGASTRATDIPDRFSGSGSGTEFTLTISSLQSEDFAVYYCQQYINWPPLSFGGGTKVEIK
B10: 40511p1.2.A12 (scFv, V domains shown)
VH: DVQLVESGGGVVRPGESLRLSCAASGFTFSSYAESWVRQAPGEGLEWVSIISGSGGNTFYADSVKGRFTISRDNSKNTLYLQMNSLRAEDTAVYYCARFAYGFFDYWGLGTLVTVSS
VL: EIVLTQSPGTLSVSPGERATLSCRASQTVGSKLAWYQQKPGQPPSLLIYDASTRATGIPDRFSGSGSGTDFTLTISSLQSEDFAVYYCQQYRNWPPLTFGGGTKVEIK
B11: 40511p1.1.H10 (scFv, V domains shown)
VH: DVQLVESGGGVVRPGESLRLSCAASGFTFSNYAMNWVRQAPGEGLEWVSRINYKGYNITYYADSVKGRFTISRDNSKNTLYLQMNSLRAEDTAVYYCAKSGSNSNNFFDYWGLGTLVTVSS
VL: EIVLTQSPGNLSLSPGERATLSCRASQSVGSQLGWYQQKPGQAPRLLIYGASTRATGIPDRFSGSGSGTEFALTISSLQSEDFAVYYCQQYYDWPPLTFGGGTKVEIK
B12: 40579p1.B8 (scFv, V domains shown)
VH: EVQLLESGGGLVQPGGSLRLSCAASGFTFSDYYMSWVRQAPGKGLEWVSGISMSSTIYYADSVKGRFTISRDNSKNTLYLQMNSLRAEDTAVYYCARHRSPYQYRSMDVWGQGTTVTVSS
VL: EIVLTQSPGTLSLSPGERATLSCRASQSVNSKLAWYQQKPGQPPSLLIYDASRRATGIPDRFSGSGSGTEFTLTISSLQSEDFAVYYCQQYNNWPPLTFGGGTKVEIK
B13: 40511p1.2.A4 (scFv, V domains shown)
VH: DVQLVESGGGVVRPGESLRLSCAASGFTFSSYAESWVRQAPGEGLEWVSIISGSGGNTFYADSVKGRFTISRDNSKNTLYLQMNSLRAEDTAVYYCARFAYGFFDYWGLGTLVTVSS
VL: EIVLTQSPGTLSVSPGERATLSCRASQTVGSKLAWYQQKPGQAPRLLIYDASTRATDIPDRFSGSGSGTDFTLTISSLQSEDFAVYYCQQYRNWPPLTFGGGTKVEIK
B14: 40511p1.1.H5 (scFv, V domains shown)
VH: DVQLVESGGGVVRPGESLRLSCAASGFTFSNYAMNWVRQAPGEGLEWVSRINYKGYNITYYADSVKGRFTISRDNSKNTLYLQMNSLRAEDTAVYYCAKSGSNSNNFFDYWGLGTLVTVSS
VL: EIVLTQSPGTLSLSPGERATLSCRASQSIRSDLAWYQQKPGQAPRLLIYGAASRATGIPARFSGSGSGTEFTLTISSLQSGDFAVYYCQQYNSWPPLTFGGGTKVEIK
B15: 40633p1.1.A7 (scFv, V domains shown)
VH: EVQLLESGGGLVQPGGSLRLSCAASGFTVSYYGMSWVRQAPGKGLEWVSAIKQDGSEKYYADSVKGRFTISRDNSKNTLYLQMNSLRAEDTAVYYCARHWNDYSNAMNVWGQGTTVTVSS
VL: QSVLTQPPSASGTPGQRVTISCSGSTSNIGRESVYWYQQLPGTAPKLLIYTIDQRPSGVPDRFSGSKSGTSASLAISGLQSEDEAVYYCASWDASLNGWVFGGGTKLTVL
B16: 40633p1.1.A11 (scFv, V domains shown)
VH: EVQLLESGGDLVQPGGSLRLSCAASGFTFNTYWMNWVRQAPGKGLEWVAGINSKGGVTYYADSVKGRFTISRDNSKNTLYLQMNSLRAEDTAVYYCADWNDYDIMDVWGQGTTVTVSS
VL: QSVLTQPPSASGTPGQTITISCSGSSSNVGRRTVNWYQQLPGTAPKLLIYTNAQRPSGVPDRFSGSKSGTSASLAISGLQSEDEADYYCATWDDSLNAWVFGGGTKLTVL
B17: 40633p1.1.B3 (scFv, V domains shown)
VH: EVQLLESGGGLVQPGGSLRLSCAASGFTVSYYGMSWVRQAPGKGLEWVSAIKQDGSEKYYADSVKGRFTISRDNSKNTLYLQMNSLRAEDTAVYYCARHWNDYSNAMNVWGQGTTVTVSS
VL: QSVLTQPPSASGTPGQRVTISCSGSTSNIGRESVYWYQQLPGTAPKLLIYTIDQRPSGVPDRFSGSKSGTSASLAISGLQSEDEADYYCGTWDDSLNAWVFGGGTKLTVL
B18: 40633p1.1.A6 (scFv, V domains shown)
VH: EVQLLESGGGLVQPGGSLRLSCAASGFSFSNYDMSWVRQAPGKGLEWVAGIRSGSRTYYADSVKGRFTISRDNSKNTLYLQMNSLRAEDTATYYCGRYFNMDVWGQGTTVTVSS
VL: QSVLTQPPSASGTPGQRVTISCSGSTFNIGTNLVHWYQQLPGTAPKLLIYLTDRRPSGVPDRFSGSKSGTSASLAISGLQSEDEANYYCATWDDSLNSFLFGGGTKLTVL
B19: 40511p1.1.D6 (scFv, V domains shown)
VH: DVQLVESGGGVVRPGESLTLSCAASGFTINSYAVSWVRQAPGEGLEWVSGISGSGVRYYADSVKGRFTISRDNSNNTLYLQMNSLRAEDTAVYYCARSNKVTWNNFFDYWGLGTLVTVSS
VL: EVVLTQSPGTLTLSPGERATLSCRASRSILTSLAWYQQKPGQAPRLLIYNTVTRATGIPARFSGSGSGTEFTLTINSLQSEDFAVYYCQQYYDWPPLTFGGGTKVEIK
B20: 40511p1.1.G3 (scFv, V domains shown)
VH: DVQLVESGGGVVRPGESLTLSCAASGFTINSYAVSWVRQAPGEGLEWVSGISGSGVRYYADSVKGRFTISRDDSNNTLYLQMNSLRAEDTAVYYCARSNKVTWNNFFDYWGLGTLVTVSS
VL: EVVLTQSPGTLTLSPGERATLSCRASRSILTSLAWYQQKPGQAPRLLIYNTVTRATGIPARFSGSGSGTEFTLTINSLQSEDFAVYYCQQYYDWPPLTFGGGTKVEIK
B21: 40579p1.E5 (scFv, V domains shown)
VH: EVQLLESGGGLVQPGGSLRLSCAASGFTFSDDWMTWVRQAPGKGLEWVSAINWNGNSTHYADSVKGRFTVSRDNSKNTLYLQMNSLRAEDTAVYYCAKSRTTYYSSMDVWGQGTTVTVSS
VL: EIVLTQSPGTLSLSPGERATLSCRASQTVGSYLAWYQQKPGQAPRLLIYGASSRATGIPARFSGSGSGTDFTLTISSLQSEDFAVYYCQHYYDWPPYSFGGGTKVEIK

The binders below were run against His-tagged cynomolgus monkey B7-H3 (cynomolgus monkey) (assay: ELISA, coated His-tagged antigen).

binding, binds:
B1
B2
B3
B4
B5
B6
B7
B8
B9
B10
B11
B12
B13
B14
B15
B16
B17
B18
B19
B20
B21

These are yes or no findings as the source states them, for the method shown. Binding can be weak; no strength is given.
